Among the data in patent US20050118638A1 are binding values, retold here.

Chains of the proteins cited; added tags and fusions are not shown. Residues count along the entry.
UniProt P16473, residues 21-764: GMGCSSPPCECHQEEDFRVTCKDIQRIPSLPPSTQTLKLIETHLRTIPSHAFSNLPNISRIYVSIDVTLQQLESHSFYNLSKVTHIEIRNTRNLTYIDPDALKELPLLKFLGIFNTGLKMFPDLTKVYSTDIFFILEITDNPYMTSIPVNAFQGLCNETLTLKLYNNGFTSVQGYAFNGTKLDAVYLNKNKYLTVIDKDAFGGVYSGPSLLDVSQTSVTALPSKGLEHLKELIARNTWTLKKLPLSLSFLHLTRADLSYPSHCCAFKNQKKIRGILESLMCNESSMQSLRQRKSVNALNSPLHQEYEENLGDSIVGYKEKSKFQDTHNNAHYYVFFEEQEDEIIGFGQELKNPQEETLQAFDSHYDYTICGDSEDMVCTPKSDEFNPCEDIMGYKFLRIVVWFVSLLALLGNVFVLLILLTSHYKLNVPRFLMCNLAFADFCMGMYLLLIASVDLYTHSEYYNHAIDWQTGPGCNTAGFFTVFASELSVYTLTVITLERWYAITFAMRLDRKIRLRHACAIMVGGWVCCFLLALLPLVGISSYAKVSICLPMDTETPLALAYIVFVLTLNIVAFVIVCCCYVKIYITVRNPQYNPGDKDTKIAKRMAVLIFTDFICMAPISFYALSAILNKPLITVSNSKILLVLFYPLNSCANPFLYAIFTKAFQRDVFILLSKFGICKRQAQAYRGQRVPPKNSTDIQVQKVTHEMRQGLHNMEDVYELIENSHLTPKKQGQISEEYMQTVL

These are yes or no findings as the source states them, for the method shown. Some binding calls cover weakened binding; strength is not graded here.

The test deals with TSH receptor (detergent solubilised TSH receptor preparation) (UniProt P16473). Nature of the test: 125I-16E5 IgG on TSHR coated tubes.

B1: 16E5 IgG (antibody, V domains shown, not shown: a dimerising Fc or GST)
VH: DVQLVQSGPELVKPGASVKMSCKASGYSFTGYNMHWVKQSHGKSLEWIGYIDPYNGATSYNQKFEDKATLTVDKSSSTAYMQLNSLTSEDSAVYYCARRWDWDPYAMDYWGQGTSVTVSS
VL: DILLTQSPAILSVSPGERVSFSCRASQSIGTSIHWYQQRTNGSPRLLIKYASESISGIFSRFSGSGSGTDFTLTINSVESEDIADYYCQQSNRWPLTFGAGTKLELKR
Turning to B1, the binding entry is “binds”.
